# Primary screen of a compound library

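Whole-cell growth test on Mycobacterium tuberculosis, read after 4 days in a medium based on cholesterol and the lipid DPPC; the read-out is not stated. Tested at 500 µM. Direction is inferred from retests: higher values go with more growth inhibition. Of about 18,000 compounds tested this way, about 900 (5%) reached 50% or more in at least one test.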

Results are given as percent effect. How 0% and 100% were set is not recorded. Most values in the screen are low, and negative values occur. This is an unselected part of the compounds tested.

| compound | effect |
|---|---|
| `CN(C)S(=O)(=O)CCNc1cc([C@H]2C[C@@H](O)C2)ncn1` | -11.47 |
| `CCCOc1ccc(CN2CCOC(CN)C2)cc1` (stereo not shown) | -4.272 |
| `CC(N)c1cc[nH]c(=O)c1` (stereo not shown) | -10.07 |
| `CCC(NC(=O)c1ccc(=O)[nH]c1)c1nc(C)c(C)s1` (stereo not shown) | -5.565 |
| `O=C(CN1CCn2ccnc2C1)NC1CCS(=O)(=O)C1` (stereo not shown) | -0.7335 |
| `COc1ccc(Cc2[nH][nH]c(=O)c2CCN)cc1` | 48.3 |
| `OC1CCN(Cc2ccc3c(c2)CCC3)C1` (stereo not shown) | 39.06 |
| `NC(=O)C1CCN(S(N)(=O)=O)CC1` | 28.43 |
| `COc1cccc(NC(=O)C(C)S(C)(=O)=O)c1` (stereo not shown) | -0.5257 |
| `Cc1cnccc1NCCNC(=O)c1ccccc1Cl` | 17.69 |
| `Cc1cccc(CN2CCCC(N(C)C)CC2)n1` (stereo not shown) | -5.264 |
| `Cc1c[nH]c(CN(C)C(=O)C2CCCCCN2C)n1` (stereo not shown) | -2.708 |
| `CCN(CC(C)(C)O)C(=O)c1nccc2ccccc12` | 12.58 |
| `NCCc1nc(-c2cccc(Cl)c2)no1` | 72.04 |
| `OC1(CN2CCCCC2)CCN(Cc2c[nH]cn2)C1` (stereo not shown) | -22.03 |
| `CC(C)(CC(N)=O)NC(=O)CC1CCC1` | -10.99 |
| `Nc1cnn(CC(=O)N2CC(N3CCCCC3)C2)c1` | 10.82 |
| `Cc1nn(C)c(C)c1S(=O)(=O)N[C@@H]1C=C[C@H](CO)C1` | 1.527 |
| `OCC1(O)CCCN(CCn2cc(Cl)cn2)CC1` (stereo not shown) | -4.728 |
| `CC(C)=CCO[C@@H]1COCC[C@H]1NS(=O)(=O)C1CC1` | -9.232 |
| `COCCN1CCCN(C(=O)C(C)S(C)(=O)=O)CC1` (stereo not shown) | -17.56 |
| `CCC(C)NC(=O)c1ccc(CN)cc1` (stereo not shown) | -7.845 |
| `Cc1ccc(CN(C)C(=O)NCCNS(C)(=O)=O)cc1` | 26.23 |
| `CNC(=O)CNC(=O)c1csc(-c2cc(Br)cs2)n1` | 7.569 |
| `CCCn1c(O)nnc1SCc1cccc(OC)n1` | 42.76 |
| `CC(NC(=O)Cn1ccc(=O)n(C)c1=O)c1cccs1` (stereo not shown) | 11.37 |
| `CO[C@@H]1CCOC[C@H]1NC(=O)c1ccccc1C#N` | 6.818 |
| `OC1CCCN(CCOc2ccccc2)C1` (stereo not shown) | 8.26 |
| `O=C(CCn1nc2ccccn2c1=O)N1CCNCC1` | 22.36 |
| `CCNC(=O)C1CCN(Cc2cc(C)no2)CC1` | 32.5 |
| `CN(C)C(=O)CNC(=O)c1c[nH]c2cc(F)ccc12` | -0.8553 |
| `O=C(NCC1COCCO1)c1cnc2ccccc2c1` (stereo not shown) | 31.3 |
| `NC1CCc2nnc(-c3ccccc3)n2C1` (stereo not shown) | 6.023 |
| `O=C(Cn1cnnn1)N(CC1CCOC1)C1CC1` (stereo not shown) | 4.104 |
| `O=S(=O)(NC1CCCNC1)c1cccc(F)c1` (stereo not shown) | 14.81 |
| `CCOC(=O)c1cc(NC(=O)C2CC2)c[nH]1` | 21.59 |
| `Cc1ccc(CCC(=O)Nc2ncnn2C)o1` | -7.71 |
| `CC(=O)N(Cc1cccc(F)c1)C1CC1` | -7.355 |
| `O=C(CSCc1ccncc1)NCc1c[nH]nn1` | 1.884 |
| `c1ccc(O[C@H]2CCNC2)nc1` | -1.888 |
| `CCOc1ncccc1C(=O)NCC1CCCN1CC` (stereo not shown) | 1.976 |
| `O=C(Nc1ccc(F)cc1F)N(CCO)CCCO` | -1.431 |
| `Cc1cc(NC(=O)CN2CCNC(=O)C2)ccc1Br` | 11.47 |
| `COCCC1(CO)CCCN(CCS(C)(=O)=O)C1` (stereo not shown) | 21.7 |
| `CCN1C(=O)C[C@H](CO)[C@H]1c1cccnc1` | -2.968 |
| `CC(N)C(=O)Nc1nc(-c2ccc(O)cc2)cs1` (stereo not shown) | 11.65 |
| `Cc1cncc(C(N)=O)c1` | -3.349 |
| `CC(C)C(=O)NCCCNC(=O)c1ccccn1` | 12.31 |
| `O=C(NCCN1CCCCCC1=O)c1ccco1` | 2.331 |
| `COCC(O)CNc1c(C)c(C)nc2ccccc12` (stereo not shown) | -65.4 |
| `COCCCNCc1ccc2c(c1)n(C)c(=O)n2C` | 2.643 |
| `NCc1ccc2c(c1)CCS2(=O)=O` | 1.334 |
| `NCC1CSc2ccccc2O1` (stereo not shown) | 34.73 |
| `CCS(=O)(=O)NCCOc1ccc2c(c1)OCO2` | 54.58 |
| `CS(=O)(=O)c1cccc(CO)c1` | -3.258 |
| `CC(C)n1cncc1CN(C)CCN1CCOCC1` | 9.949 |
| `COCCN1CCN(CCc2ccncc2)CC1` | -4.155 |
| `CCC(O)(CN)c1ccc(Br)cc1` (stereo not shown) | 24.97 |
| `COC(=O)c1cc(C2CC2)n2nccc2n1` | 7.034 |
| `Cc1ccc(C(=O)N2CCCNCC2)cc1` | 17.99 |
| `CCCN(C)C(=O)c1cc(CN2CCOCC2)on1` | -4.778 |
| `NC1CCN(Cc2ccccc2F)CC1` | 52.31 |
| `CC(=O)N1CCc2cc(C(=O)N(C)C)ccc21` | -7.381 |
| `CNC(=O)[C@@H]1CCCN1CC1CCNCC1` | 3.924 |
| `CCC[C@H]1CN(S(=O)(=O)N(C)CC)C[C@@H]1N` | 11.37 |
| `CCN1CC(c2nc3ccccc3[nH]2)CC1=O` (stereo not shown) | 52.59 |
| `c1nn[nH]c1SCCNC1CCOC2(CCOCC2)C1` (stereo not shown) | 3.75 |
| `C[C@@H]1CN(C(=O)CCCc2cn[nH]c2)C[C@]1(C)O` | -4.06 |
| `CN(C)c1ccc(-c2[nH][nH]c(=O)c2CCN)cc1` | 12.32 |
| `CC(C)(C)C(=O)NCC(=O)Nc1ccccn1` | -8.306 |
| `CCc1ccc(O)c(C(=O)NCC2CCS(=O)(=O)C2)c1` (stereo not shown) | 13.91 |
| `Cc1cc(C2CCC2)nc(N2CCNC(=O)C2)n1` | 47.9 |
| `CCn1nc(C)cc1C(=O)NCCCc1ncc[nH]1` | -3.099 |
| `CCC1C(=O)NCCN1CCCOC` (stereo not shown) | -13.38 |
| `Cc1cc(Br)cnc1N1CCN(C(C)C(N)=O)CC1` (stereo not shown) | 32.26 |
| `NCCc1ccco1` | 1.764 |
| `CC(C)(C)OC(=O)NC1CC2(CNC2)C1` | 61.53 |
| `Cc1cc(O)ccc1C(=O)NCC1(O)CCNC1` (stereo not shown) | -13.58 |
| `CCCS(=O)(=O)Nc1cccc2c1CCN2C` | 12.96 |
| `CN(C)C1(CNC(=O)c2ccncc2)CCCC1` | 20.07 |
| `CN(C)C(=O)CC(N)c1ccccc1` (stereo not shown) | -0.2385 |
| `CO[C@H]1CN(C(=O)c2csc(CN(C)C)n2)CC[C@H]1N` | -1.422 |
| `CCN1CCN(C(=O)N(CC)CC)CC1` | 1.316 |
| `COC(=O)c1ccccc1C#N` | 8.466 |
| `CC1CS(=O)(=O)CCN1C(=O)CCCSC(C)(C)C` (stereo not shown) | 3.684 |
| `NCc1ccc2occc2c1` | 6.497 |
| `Nc1nccnc1C(=O)Nc1ccccn1` | 5.999 |
| `COCCNC(=O)c1cccnc1SC(F)F` | 10.48 |
| `COc1ccc(S(N)(=O)=O)c(OC)c1OC` | -17.2 |
| `CC(C)(C)CC(=O)NCCS(=O)(=O)N1CCSCC1` | 1.826 |
| `COc1cc(Br)c(CN(C)CC(=O)N(C)C)c(OC)c1` | 6.571 |
| `NC1CCN(S(=O)(=O)C2CC2)CC1` | 17.3 |
| `C[C@@H](CO)NC(=O)c1cc(N(C)C)ccn1` | -2.629 |
| `Cc1cccn(Cc2nc(-c3ccccn3)no2)c1=O` | -4.325 |
| `COc1ncc(N)c(C)c1Br` | -49.1 |

The last 10 entries again:

compound,effect
NCc1ccc2occc2c1,6.497
Nc1nccnc1C(=O)Nc1ccccn1,5.999
COCCNC(=O)c1cccnc1SC(F)F,10.48
COc1ccc(S(N)(=O)=O)c(OC)c1OC,-17.2
CC(C)(C)CC(=O)NCCS(=O)(=O)N1CCSCC1,1.826
COc1cc(Br)c(CN(C)CC(=O)N(C)C)c(OC)c1,6.571
NC1CCN(S(=O)(=O)C2CC2)CC1,17.3
C[C@@H](CO)NC(=O)c1cc(N(C)C)ccn1,-2.629
Cc1cccn(Cc2nc(-c3ccccn3)no2)c1=O,-4.325
COc1ncc(N)c(C)c1Br,-49.1

The values are deposited in ChEMBL (CHEMBL3988442, “University of Dundee, Small-Polar-MMV Screening Library” (2021)).